# The other results are listed elsewhere or left out.
# Legend:
# Experiment in all cases: glycan array binding signal (z-score within array); higher = stronger binding
# Conditions in all cases: glycan notation: IUPAC condensed, linker removed
# [1] = target: Fuc(a1-2)[GalNAc(a1-3)]Gal(b1-3)GlcNAc(b1-3)GalNAc
# Method in brief: (§1)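 Glycan array data were curated from 3228 arrays in the Consortium for Functional Glycomics database and kept only where the protein sequence was available. Glycan names were converted to IUPAC-condensed notation, and columns mapping to the same glycan were averaged. The binding signal is a within-array Z-score, averaged across arrays of the same protein sequence at different concentrations or buffers and across linkers. Negative Z-scores can be read as non-binding.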
# [2] = target: Fuc(a1-2)[GalNAc(a1-3)]Gal(b1-3)GlcNAc(b1-6)GalNAc
# Method in brief: as §1
# [3] = target: Fuc(a1-2)[GalNAc(a1-3)]Gal(b1-4)Glc
# Method in brief: as §1
# [4] = target: Fuc(a1-2)[GalNAc(a1-3)]Gal(b1-4)GlcNAc
# Method in brief: as §1
# [5] = target: Fuc(a1-2)[GalNAc(a1-3)]Gal(b1-4)GlcNAc(b1-2)Man
# Method in brief: as §1
# [6] = target: Fuc(a1-2)[GalNAc(a1-3)]Gal(b1-4)GlcNAc(b1-2)Man(a1-3)[Fuc(a1-2)[GalNAc(a1-3)]Gal(b1-4)GlcNAc(b1-2)Man(a1-6)]Man(b1-4)GlcNAc(b1-4)GlcNAc
# Method in brief: as §1
# [7] = target: Fuc(a1-2)[GalNAc(a1-3)]Gal(b1-4)GlcNAc(b1-2)Man(a1-3)[Fuc(a1-2)[GalNAc(a1-3)]Gal(b1-4)GlcNAc(b1-2)Man(a1-6)]Man(b1-4)GlcNAc(b1-4)[Fuc(a1-6)]GlcNAc
# Method in brief: as §1
# [8] = target: Fuc(a1-2)[GalNAc(a1-3)]Gal(b1-4)GlcNAc(b1-3)Gal(b1-4)GlcNAc
# Method in brief: as §1
# [9] = target: Fuc(a1-2)[GalNAc(a1-3)]Gal(b1-4)GlcNAc(b1-3)Gal(b1-4)GlcNAc(b1-3)Gal(b1-4)GlcNAc
# Method in brief: as §1
# [10] = target: Fuc(a1-2)[GalNAc(a1-3)]Gal(b1-4)GlcNAc(b1-3)GalNAc
# Method in brief: as §1
# [11] = target: Fuc(a1-2)[GalNAc(a1-3)]Gal(b1-4)GlcNAc(b1-3)[Fuc(a1-2)[GalNAc(a1-3)]Gal(b1-4)GlcNAc(b1-6)]GalNAc
# Method in brief: as §1
# [12] = target: Fuc(a1-2)[GalNAc(a1-3)]Gal(b1-4)GlcNAc(b1-6)GalNAc
# Method in brief: as §1
# [13] = target: Fuc(a1-2)[GalNAc(a1-3)]Gal(b1-4)[Fuc(a1-3)]GlcNAc
# Method in brief: as §1
# [14] = target: Fuc(a1-2)[GalNAc(a1-3)]Gal(b1-4)[Fuc(a1-3)]GlcNAc(b1-3)GalNAc
# Method in brief: as §1
# [15] = target: Fuc(a1-2)[GalNAc(a1-4)]Gal(b1-4)GlcNAc
# Method in brief: as §1
# [16] = target: Fuc(a1-2)[GalNAc(b1-3)]Gal
# Method in brief: as §1
# [17] = target: Fuc(a1-3)GlcNAc
# Method in brief: as §1
# [18] = target: Fuc(a1-3)[Gal(b1-4)]Glc6S
# Method in brief: as §1
# [19] = target: Fuc(a1-3)[Gal(b1-4)]GlcNAc
# Method in brief: as §1
# [20] = target: Fuc(a1-3)[Gal(b1-4)]GlcNAc(b1-2)Man
# Method in brief: as §1
# [21] = target: Fuc(a1-3)[Gal(b1-4)]GlcNAc(b1-2)Man(a1-3)[Fuc(a1-3)[Gal(b1-4)]GlcNAc(b1-2)Man(a1-6)]Man(b1-4)GlcNAc(b1-4)GlcNAc
# Method in brief: as §1
# [22] = target: Fuc(a1-3)[Gal(b1-4)]GlcNAc(b1-2)Man(a1-3)[Fuc(a1-3)[Gal(b1-4)]GlcNAc(b1-2)Man(a1-6)]Man(b1-4)GlcNAc(b1-4)[Fuc(a1-6)]GlcNAc
# Method in brief: as §1
# [23] = target: Fuc(a1-3)[Gal(b1-4)]GlcNAc(b1-3)Gal(b1-3)[Fuc(a1-4)]GlcNAc
# Method in brief: as §1
# [24] = target: Fuc(a1-3)[Gal(b1-4)]GlcNAc(b1-3)Gal(b1-4)[Fuc(a1-3)]GlcNAc
# Method in brief: as §1
# [25] = target: Fuc(a1-3)[Gal(b1-4)]GlcNAc(b1-3)Gal(b1-4)[Fuc(a1-3)]GlcNAc(b1-3)Gal(b1-4)[Fuc(a1-3)]GlcNAc
# Method in brief: as §1
# [26] = target: Fuc(a1-3)[Gal(b1-4)]GlcNAc(b1-3)GalNAc
# Method in brief: as §1
# [27] = target: Fuc(a1-3)[Gal(b1-4)]GlcNAc(b1-6)GalNAc
# Method in brief: as §1
# [28] = target: Fuc(a1-3)[Gal(b1-4)]GlcNAc(b1-6)[Gal(b1-3)GlcNAc(b1-3)]Gal(b1-4)Glc
# Method in brief: as §1
# [29] = target: Fuc(a1-3)[Gal(b1-4)]GlcNAc6S
# Method in brief: as §1
# [30] = target: Fuc(a1-3)[Gal3S(b1-4)]Glc
# Method in brief: as §1
# [31] = target: Fuc(a1-3)[Gal3S(b1-4)]GlcNAc
# Method in brief: as §1
# [32] = target: Fuc(a1-3)[Gal3S(b1-4)]GlcNAc6S
# Method in brief: as §1
# [33] = target: Fuc(a1-3)[GalNAc(b1-4)]GlcNAc
# Method in brief: as §1
# [34] = target: Fuc(a1-3)[GalNAc(b1-4)]GlcNAc6S
# Method in brief: as §1
# [35] = target: Fuc(a1-4)GlcNAc
# Method in brief: as §1
# [36] = target: Fuc(b1-3)GlcNAc
# Method in brief: as §1
# [37] = target: Gal(a1-2)Gal
# Method in brief: as §1
binder,measurement,setting,value
Drgal1 (Danio rerio) (protein) MAGVLIQNMSFKVGQTLTITGVPKPDSTNFAINIGHSPEDIALHMNPRFDAHGDQCTIVCNSFQSGSWCEEHRDDNFPFIQDKEFQIKITFTNEEFLVTLPDGSEIHFPNRQGSEKYKYMYFEGEVRIQGVEIK,glycan array binding signal (z-score),[1],-0.069
same,glycan array binding signal (z-score),[2],-0.533
same,glycan array binding signal (z-score),[3],-0.454
same,glycan array binding signal (z-score),[4],-0.6
same,glycan array binding signal (z-score),[5],-1.11
same,glycan array binding signal (z-score),[6],0.154
same,glycan array binding signal (z-score),[7],0.279
same,glycan array binding signal (z-score),[8],-0.493
same,glycan array binding signal (z-score),[9],0.101
same,glycan array binding signal (z-score),[10],-0.871
same,glycan array binding signal (z-score),[11],-0.241
same,glycan array binding signal (z-score),[12],-0.577
same,glycan array binding signal (z-score),[13],0.041
same,glycan array binding signal (z-score),[14],2.22
same,glycan array binding signal (z-score),[15],0.017
same,glycan array binding signal (z-score),[16],-0.233
same,glycan array binding signal (z-score),[17],-0.318
same,glycan array binding signal (z-score),[18],-0.694
same,glycan array binding signal (z-score),[19],-0.316
same,glycan array binding signal (z-score),[20],0.041
same,glycan array binding signal (z-score),[21],0.171
same,glycan array binding signal (z-score),[22],0.227
same,glycan array binding signal (z-score),[23],-0.505
same,glycan array binding signal (z-score),[24],-0.28
same,glycan array binding signal (z-score),[25],-0.386
same,glycan array binding signal (z-score),[26],-0.392
same,glycan array binding signal (z-score),[27],0.267
same,glycan array binding signal (z-score),[28],0.046
same,glycan array binding signal (z-score),[29],2.04
same,glycan array binding signal (z-score),[30],-0.077
same,glycan array binding signal (z-score),[31],-0.047
same,glycan array binding signal (z-score),[32],-0.451
same,glycan array binding signal (z-score),[33],1.26
same,glycan array binding signal (z-score),[34],-0.484
same,glycan array binding signal (z-score),[35],0.41
same,glycan array binding signal (z-score),[36],-0.45
same,glycan array binding signal (z-score),[37],-0.396

# Part of the list above, with bars between the fields.
binder | measurement | setting | value
Drgal1 (Danio rerio) (protein) MAGVLIQNMSFKVGQTLTITGVPKPDSTNFAINIGHSPEDIALHMNPRFDAHGDQCTIVCNSFQSGSWCEEHRDDNFPFIQDKEFQIKITFTNEEFLVTLPDGSEIHFPNRQGSEKYKYMYFEGEVRIQGVEIK | glycan array binding signal (z-score) | [23] | -0.505
same | glycan array binding signal (z-score) | [24] | -0.28
